The record followed here is doi:10.1101/2023.11.03.565550.

Chains of the proteins cited; added tags and fusions are not shown.
UniProt Q96321: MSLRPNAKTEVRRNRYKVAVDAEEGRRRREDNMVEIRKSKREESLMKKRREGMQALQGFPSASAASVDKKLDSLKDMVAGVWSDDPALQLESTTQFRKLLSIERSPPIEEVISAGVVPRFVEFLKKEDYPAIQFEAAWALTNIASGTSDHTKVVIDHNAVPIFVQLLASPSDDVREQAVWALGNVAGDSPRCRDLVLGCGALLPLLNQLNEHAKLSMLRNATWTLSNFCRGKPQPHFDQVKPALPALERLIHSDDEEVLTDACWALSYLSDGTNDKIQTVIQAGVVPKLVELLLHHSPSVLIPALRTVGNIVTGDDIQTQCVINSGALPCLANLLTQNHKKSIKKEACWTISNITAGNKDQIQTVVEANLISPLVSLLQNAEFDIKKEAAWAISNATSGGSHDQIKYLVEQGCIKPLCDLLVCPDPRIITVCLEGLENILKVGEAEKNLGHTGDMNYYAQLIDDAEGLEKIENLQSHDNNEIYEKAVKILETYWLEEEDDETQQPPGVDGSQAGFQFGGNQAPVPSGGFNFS
UniProt O80480: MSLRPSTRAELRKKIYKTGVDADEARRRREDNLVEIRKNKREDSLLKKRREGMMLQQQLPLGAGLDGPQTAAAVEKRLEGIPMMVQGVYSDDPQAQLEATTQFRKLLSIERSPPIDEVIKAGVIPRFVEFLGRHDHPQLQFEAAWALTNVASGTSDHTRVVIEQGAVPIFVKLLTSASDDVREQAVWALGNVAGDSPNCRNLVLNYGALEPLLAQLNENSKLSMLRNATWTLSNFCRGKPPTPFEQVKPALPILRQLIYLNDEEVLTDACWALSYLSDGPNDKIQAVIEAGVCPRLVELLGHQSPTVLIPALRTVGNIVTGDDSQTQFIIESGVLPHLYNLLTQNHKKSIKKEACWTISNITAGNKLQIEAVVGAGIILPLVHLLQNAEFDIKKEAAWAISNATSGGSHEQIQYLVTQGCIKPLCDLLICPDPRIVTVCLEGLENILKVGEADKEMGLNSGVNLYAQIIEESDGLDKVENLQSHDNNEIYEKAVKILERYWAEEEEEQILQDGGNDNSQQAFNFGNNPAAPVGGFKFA
UniProt O04294: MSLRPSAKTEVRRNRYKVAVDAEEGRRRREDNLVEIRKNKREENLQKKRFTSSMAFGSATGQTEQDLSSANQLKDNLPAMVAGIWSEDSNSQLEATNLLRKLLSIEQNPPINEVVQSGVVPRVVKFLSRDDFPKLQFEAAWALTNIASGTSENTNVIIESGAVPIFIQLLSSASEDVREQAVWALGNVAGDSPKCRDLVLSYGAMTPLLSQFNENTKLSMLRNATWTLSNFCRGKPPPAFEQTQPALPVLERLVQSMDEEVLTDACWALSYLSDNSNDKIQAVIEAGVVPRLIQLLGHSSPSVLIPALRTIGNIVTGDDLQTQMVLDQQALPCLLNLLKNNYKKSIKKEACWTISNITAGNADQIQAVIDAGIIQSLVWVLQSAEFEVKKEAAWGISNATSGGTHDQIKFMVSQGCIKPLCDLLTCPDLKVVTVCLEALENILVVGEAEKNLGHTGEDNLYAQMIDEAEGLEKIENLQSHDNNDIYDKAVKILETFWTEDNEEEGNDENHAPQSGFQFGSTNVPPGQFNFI
UniProt F4JL11: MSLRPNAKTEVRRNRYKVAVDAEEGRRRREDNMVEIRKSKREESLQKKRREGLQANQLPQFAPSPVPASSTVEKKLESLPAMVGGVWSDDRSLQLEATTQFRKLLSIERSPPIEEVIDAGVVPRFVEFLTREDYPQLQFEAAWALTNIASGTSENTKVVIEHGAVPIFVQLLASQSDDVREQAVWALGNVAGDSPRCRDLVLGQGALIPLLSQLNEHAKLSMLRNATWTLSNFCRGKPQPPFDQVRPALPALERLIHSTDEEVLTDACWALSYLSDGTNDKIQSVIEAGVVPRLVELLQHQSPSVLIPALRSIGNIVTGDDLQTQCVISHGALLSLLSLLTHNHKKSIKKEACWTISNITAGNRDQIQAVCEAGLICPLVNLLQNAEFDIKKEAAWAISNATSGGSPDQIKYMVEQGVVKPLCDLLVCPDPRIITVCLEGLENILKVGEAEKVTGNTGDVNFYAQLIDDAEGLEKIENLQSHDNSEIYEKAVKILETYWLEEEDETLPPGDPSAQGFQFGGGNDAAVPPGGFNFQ

Results are given in words; binding and its absence hold for the method and conditions named. Some entries that bind do so weakly or less than the wild type. Tags and fused reporters may be left off the sequences shown.

In assay [1] the target is T1, gl2^ΔNLS bait of the split-ubiquitin cytosolic yeast two-hybrid assay (OST4 anchor fusion) (Arabidopsis) (UniProt P46607).
T1 sequence: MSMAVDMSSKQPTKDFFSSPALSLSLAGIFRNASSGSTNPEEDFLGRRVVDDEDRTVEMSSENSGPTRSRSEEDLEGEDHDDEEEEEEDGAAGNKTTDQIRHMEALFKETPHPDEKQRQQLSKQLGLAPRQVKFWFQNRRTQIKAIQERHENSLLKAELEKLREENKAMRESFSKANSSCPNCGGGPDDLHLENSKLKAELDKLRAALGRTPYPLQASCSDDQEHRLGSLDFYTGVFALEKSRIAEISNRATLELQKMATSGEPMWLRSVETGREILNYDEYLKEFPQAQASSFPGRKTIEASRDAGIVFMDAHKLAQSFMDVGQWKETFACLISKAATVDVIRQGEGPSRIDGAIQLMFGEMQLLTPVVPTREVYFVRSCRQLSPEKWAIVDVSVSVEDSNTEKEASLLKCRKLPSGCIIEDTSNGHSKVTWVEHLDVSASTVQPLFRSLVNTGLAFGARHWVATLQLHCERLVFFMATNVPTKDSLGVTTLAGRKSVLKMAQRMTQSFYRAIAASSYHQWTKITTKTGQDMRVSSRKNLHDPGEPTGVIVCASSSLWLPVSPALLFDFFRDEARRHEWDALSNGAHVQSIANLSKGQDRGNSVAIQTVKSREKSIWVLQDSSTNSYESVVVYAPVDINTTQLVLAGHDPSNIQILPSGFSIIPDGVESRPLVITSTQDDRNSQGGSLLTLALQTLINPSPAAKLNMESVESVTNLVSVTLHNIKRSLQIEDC
Kind of assay: two-hybrid.

Assay [2] deals with T2, GL2 bait of the split-ubiquitin cytosolic yeast two-hybrid assay (OST4 anchor fusion) (Arabidopsis) (UniProt P46607).
T2 sequence: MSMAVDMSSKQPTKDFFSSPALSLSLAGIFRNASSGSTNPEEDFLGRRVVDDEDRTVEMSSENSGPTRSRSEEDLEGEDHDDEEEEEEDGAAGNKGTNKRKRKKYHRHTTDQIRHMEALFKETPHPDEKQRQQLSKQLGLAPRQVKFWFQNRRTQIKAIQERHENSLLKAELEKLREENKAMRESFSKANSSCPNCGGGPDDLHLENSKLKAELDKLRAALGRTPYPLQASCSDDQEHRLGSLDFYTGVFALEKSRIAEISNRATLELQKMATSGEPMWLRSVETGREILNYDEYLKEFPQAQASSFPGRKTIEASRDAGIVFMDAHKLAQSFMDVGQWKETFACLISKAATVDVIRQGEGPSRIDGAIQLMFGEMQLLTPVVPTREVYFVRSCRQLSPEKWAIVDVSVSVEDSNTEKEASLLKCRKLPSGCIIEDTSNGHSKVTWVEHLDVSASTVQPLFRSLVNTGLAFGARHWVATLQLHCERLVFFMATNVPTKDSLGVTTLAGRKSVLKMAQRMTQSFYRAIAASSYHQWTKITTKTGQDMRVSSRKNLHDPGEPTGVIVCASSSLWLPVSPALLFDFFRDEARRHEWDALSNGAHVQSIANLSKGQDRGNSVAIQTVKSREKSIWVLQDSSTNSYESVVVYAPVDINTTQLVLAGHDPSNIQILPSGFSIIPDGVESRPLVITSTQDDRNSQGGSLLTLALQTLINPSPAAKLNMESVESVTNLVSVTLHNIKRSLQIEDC
As to the kind of experiment: two-hybrid.

Turning to “Importin α isoform IMPα-1, cytoY2H prey (from UniProt Q96321 1-532)”, the binding result was “no binding” in assay [1] and “binds weakly” in assay [2].

On to “Importin α isoform IMPα-4, cytoY2H prey (from UniProt O80480 1-538)”, for which the figures for the binding result in assay [1] and in assay [2] were “no binding” and “binds weakly”, respectively.

On to “Importin α isoform IMPα-3, cytoY2H prey (from UniProt O04294 1-531)”, for which the binding entry in assay [1] is on record as “no binding”; in assay [2], “binds weakly”.

As to “Importin α isoform IMPα-2, cytoY2H prey (from UniProt F4JL11 1-535)”, the binding result in assay [1] is given as “no binding”; in assay [2], “binds weakly”.
